{"source": "patent US20050014751A1", "about": "“Use of n-acyl homoserine lactones for the treatment of insulitis” (priority 2001, published 2005)", "tested_on": "cell proliferation", "assay": "Comparative in vitro studies for the prevention of cell proliferation", "format": "cell-based", "settings": "compared with OdDHL", "note": "At least one compound was matched to its structure with a doubt left.", "data": [{"smiles": "C[C@@H]1C[C@H]2[C@@H]3CCC4=CC(=O)C=C[C@]4(C)[C@@]3(F)[C@@H](O)C[C@]2(C)[C@@]1(O)C(=O)CO", "note": "[dexamethasone, reference compound]", "values": [{"measurement": "comparative in vitro anti proliferative effect (FIG. 4)", "value": "performed better than OdDHL"}]}]}
